Source: PMC10258020
These are yes or no findings as the source states them, for the method shown. In cells and extracts the contact can be indirect. Some results given as binding are weak or reduced against the parent protein; the word gives no strength.

Target: Ras-GTPase-activating protein SH3-domain-binding protein 1 (G3BP1) (human (endogenous in SH-SY5Y)) (UniProt Q13283)
Assay: co-IP; stress granule cores from SH-SY5Y cells treated with 500 uM sodium arsenite for 1 h, immunoprecipitated with anti-G3BP1 antibody (BD Biosciences, 611126) and Dynabeads Protein G at 4°C in SG lysis buffer (50 mM Tris-HCl pH 7.4, 100 mM KOAc, 2 mM MgOAc, 0.5 mM DTT, 50 ug/mL heparin, 0.5% NP-40); proteins detected in the purified cores

binding: binds
B1: Ras-GTPase-activating protein SH3-domain-binding protein 2 (G3BP2) (protein, UniProt Q9UN86 1-482)
chain: MVMEKPSPLLVGREFVRQYYTLLNKAPEYLHRFYGRNSSYVHGGVDASGKPQEAVYGQNDIHHKVLSLNFSECHTKIRHVDAHATLSDGVVVQVMGLLSNSGQPERKFMQTFVLAPEGSVPNKFYVHNDMFRYEDEVFGDSEPELDEESEDEVEEEQEERQPSPEPVQENANSGYYEAHPVTNGIEEPLEESSHEPEPEPESETKTEELKPQVEEKNLEELEEKSTTPPPAEPVSLPQEPPKAFSWASVTSKNLPPSGTVSSSGIPPHVKAPVSQPRVEAKPEVQSQPPRVREQRPRERPGFPPRGPRPGRGDMEQNDSDNRRIIRYPDSHQLFVGNLPHDIDENELKEFFMSFGNVVELRINTKGVGGKLPNFGFVVFDDSEPVQRILIAKPIMFRGEVRLNVEEKKTRAARERETRGGGDDRRDIRRNDRGPGGPRGIVGGGMMRDRDGRGPPPRGGMAQKLGSGRGTGQMEGRFTGQRR
